PubChem BioAssay AID1259308 – NCATS, 2017

- Aim: 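Candidate targets for better recombinant protein yield in mammalian cells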 (primary screen)
- Cell system: human HEK293 embryonic kidney cells stably expressing firefly luciferase (HEK-CMV-Luc2-Hygro)
- Knock-down reagent: single siRNA against human genes, 0.8 pmol siRNA per well
- Time to read-out: 72 h
- Detection: 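Luciferase light (ONE-Glo) measured on one replicate plate set and viability (CellTiter-Glo) on the other, scaled to a negative control siRNA, with robust z-scores and luciferase per cell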
- Scale: total luciferase, z-score and total luciferase, % of control: higher = more reporter protein produced; luciferase per cell, z-score: higher = more reporter output per viable cell; viable cells, % of control: higher = more viable cells
- Hit rule: 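Active when the median/MAD z-score for overall luciferase is greater than 3; a gene was taken forward for validation with new siRNAs if at least two of its three siRNAs passed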
- Meaning of the calls: active = raised luciferase; inactive = no rise
Shown is one part, drawn at random, of about 59,000 reagents tested. About 1,510 of all reagents (2.6%) were called active. 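Calls use total luciferase alone and ignore viability, so some active siRNAs may act by altering cell number.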 Unmarked entries are inactive. The numbers tell different reagents against one gene apart. No sequences are given here.

gene symbol | siRNA no. | total luciferase, z-score | total luciferase, % of control | luciferase per cell, z-score | viable cells, % of control
GNA13 (G protein subunit alpha 13) | 1 | -1.71 | 47.8 | -1.38 | 76.8
GNA13 (G protein subunit alpha 13) | 2 | -0.0321 | 81.2 | 0.155 | 87.2
GNA13 (G protein subunit alpha 13) | 3 | -0.611 | 69.7 | -1.31 | 110
BTF3L4P2 (basic transcription factor 3 like 4 pseudogene 2) | 1 | -0.423 | 73.5 | -0.184 | 86.2
BTF3L4P2 (basic transcription factor 3 like 4 pseudogene 2) | 2 | 0.289 | 87.6 | -0.209 | 103
BTF3L4P2 (basic transcription factor 3 like 4 pseudogene 2) | 3 | 0.195 | 85.8 | -0.155 | 99.8
MYLIP (myosin regulatory light chain interacting protein) | 1 | -0.974 | 62.5 | -0.917 | 89
MYLIP (myosin regulatory light chain interacting protein) | 2 | -0.55 | 70.9 | -0.902 | 101
MYLIP (myosin regulatory light chain interacting protein) | 3 | 0.00493 | 82 | 2.02 | 53.9
RPL23AP25 (ribosomal protein L23a pseudogene 25) | 1 | -0.658 | 68.8 | 0.406 | 69.1
RPL23AP25 (ribosomal protein L23a pseudogene 25) | 2 | 0.578 | 93.4 | 0.264 | 97.3
RPL23AP25 (ribosomal protein L23a pseudogene 25) | 3 | 0.62 | 94.2 | 0.886 | 83.4
JMJD1C (jumonji domain containing 1C) | 1 | -0.479 | 72.4 | -0.0437 | 81.8
JMJD1C (jumonji domain containing 1C) | 2 | -0.0701 | 80.5 | -0.0848 | 92
JMJD1C (jumonji domain containing 1C) | 3 | 0.0977 | 83.8 | 0.354 | 85.3
PCSK1N (proprotein convertase subtilisin/kexin type 1 inhibitor) | 1 | -1.01 | 61.9 | -0.965 | 89.1
PCSK1N (proprotein convertase subtilisin/kexin type 1 inhibitor) | 2 | -0.801 | 66 | -1.18 | 101
PCSK1N (proprotein convertase subtilisin/kexin type 1 inhibitor) | 3 | -0.684 | 68.3 | -0.704 | 91.8
NRXN1 (neurexin 1) | 1 | -0.999 | 62 | -1.83 | 112
NRXN1 (neurexin 1) | 2 | -0.249 | 76.9 | -0.413 | 95.9
NRXN1 (neurexin 1) | 3 | -0.113 | 79.6 | -0.171 | 93.1
ARHGAP30 (Rho GTPase activating protein 30) | 1 | 0.146 | 84.8 | 0.191 | 90.1
ARHGAP30 (Rho GTPase activating protein 30) | 2 | 0.161 | 85.1 | -0.21 | 100
ARHGAP30 (Rho GTPase activating protein 30) | 3 | 0.454 | 90.9 | 0.46 | 90
CKS1BP6 (CDC28 protein kinase regulatory subunit 1B pseudogene 6) | 1 | 3.02 (active) | 142 | 1.94 | 95.2
CKS1BP6 (CDC28 protein kinase regulatory subunit 1B pseudogene 6) | 2 | 1.16 | 105 | 1.57 | 77.6
CKS1BP6 (CDC28 protein kinase regulatory subunit 1B pseudogene 6) | 3 | -2.73 | 27.6 | -2.03 | 52.6
SPINK1 (serine peptidase inhibitor Kazal type 1) | 1 | 0.495 | 91.7 | -0.262 | 110
SPINK1 (serine peptidase inhibitor Kazal type 1) | 2 | -0.472 | 72.5 | -0.842 | 101
SPINK1 (serine peptidase inhibitor Kazal type 1) | 3 | -0.825 | 65.5 | -1.46 | 107
SNRNP70 (small nuclear ribonucleoprotein U1 subunit 70) | 1 | 3.28 (active) | 147 | 1.98 | 97.6
SNRNP70 (small nuclear ribonucleoprotein U1 subunit 70) | 2 | 1.09 | 104 | 0.278 | 108
SNRNP70 (small nuclear ribonucleoprotein U1 subunit 70) | 3 | 0.945 | 101 | 0.428 | 101
NPHP3 (nephrocystin 3) | 1 | 0.26 | 87.1 | -0.245 | 104
NPHP3 (nephrocystin 3) | 2 | -1.69 | 48.3 | -2.35 | 100
NPHP3 (nephrocystin 3) | 3 | 0.364 | 89.1 | -0.128 | 103
PCDHB3 (protocadherin beta 3) | 1 | -0.116 | 79.6 | -0.162 | 92.8
PCDHB3 (protocadherin beta 3) | 2 | 2.43 | 130 | 1.96 | 86.8
PCDHB3 (protocadherin beta 3) | 3 | -0.33 | 75.3 | 0.308 | 77.6
ERICH3 (glutamate rich 3) | 1 | 0.646 | 94.7 | 0.91 | 83.3
ERICH3 (glutamate rich 3) | 2 | 1.73 | 116 | 1.59 | 85.5
ERICH3 (glutamate rich 3) | 3 | -1.6 | 50.1 | -1.55 | 84.3
OGFOD2 | 1 | 0.7 | 95.8 | -0.106 | 110
OGFOD2 | 2 | 1.63 | 114 | 1.1 | 95.5
OGFOD2 | 3 | -1.98 | 42.4 | -1.81 | 76.4
APOL1 (apolipoprotein L1) | 1 | 0.188 | 85.6 | 0.29 | 88.6
APOL1 (apolipoprotein L1) | 2 | 2.65 | 135 | 2.77 | 72.4
APOL1 (apolipoprotein L1) | 3 | -0.289 | 76.1 | -0.0313 | 85.8
DEFB118 (defensin beta 118) | 1 | -0.173 | 78.4 | -0.579 | 102
DEFB118 (defensin beta 118) | 2 | 0.29 | 87.7 | 0.0173 | 97.5
DEFB118 (defensin beta 118) | 3 | -1.56 | 50.9 | -2.11 | 99
TRIM16L (tripartite motif containing 16 like (pseudogene)) | 1 | -1.43 | 53.5 | 0.0443 | 59.1
TRIM16L (tripartite motif containing 16 like (pseudogene)) | 2 | -1.46 | 52.9 | -1.37 | 84.9
TRIM16L (tripartite motif containing 16 like (pseudogene)) | 3 | -0.0621 | 80.7 | -0.11 | 92.8
TNS4 (tensin 4) | 1 | -0.0327 | 81.2 | -0.273 | 97.6
TNS4 (tensin 4) | 2 | 1.29 | 108 | 2.28 | 66
TNS4 (tensin 4) | 3 | 1.05 | 103 | 1.63 | 74.8
OTOR (otoraplin) | 1 | -0.376 | 74.4 | -0.356 | 91.3
OTOR (otoraplin) | 2 | -0.321 | 75.5 | -0.635 | 99.7
OTOR (otoraplin) | 3 | 2.3 | 128 | 2.96 | 65.5
CERS5 (ceramide synthase 5) | 1 | -0.439 | 73.2 | -0.812 | 101
CERS5 (ceramide synthase 5) | 2 | 0.924 | 100 | 0.875 | 89
CERS5 (ceramide synthase 5) | 3 | -0.488 | 72.2 | -0.942 | 103
MRPL45 (mitochondrial ribosomal protein L45) | 1 | 0.213 | 86.1 | 0.56 | 83
MRPL45 (mitochondrial ribosomal protein L45) | 2 | 0.403 | 89.9 | 0.4 | 90.4
MRPL45 (mitochondrial ribosomal protein L45) | 3 | -1.72 | 47.7 | -1.52 | 79.4
PPP2R5B (protein phosphatase 2 regulatory subunit B'beta) | 1 | -0.839 | 65.2 | -0.818 | 90.4
PPP2R5B (protein phosphatase 2 regulatory subunit B'beta) | 2 | 1.66 | 115 | 0.583 | 110
PPP2R5B (protein phosphatase 2 regulatory subunit B'beta) | 3 | -1.66 | 48.8 | -1.82 | 88
MIR3945HG (MIR3945 host gene) | 1 | 0.0844 | 83.6 | 0.485 | 82.2
MIR3945HG (MIR3945 host gene) | 2 | 0.219 | 86.2 | 0.135 | 93
MIR3945HG (MIR3945 host gene) | 3 | -0.345 | 75 | 0.455 | 74.4
CKMT2 (creatine kinase, mitochondrial 2) | 1 | 0.468 | 91.2 | -0.0689 | 104
CKMT2 (creatine kinase, mitochondrial 2) | 2 | 0.337 | 88.6 | 0.269 | 92.2
CKMT2 (creatine kinase, mitochondrial 2) | 3 | -0.143 | 79 | -0.126 | 91.3
